The experiment addresses murine double minute chromosome 2 (MDM2) oncoprotein, endogenous in A375 cells (human (endogenous in A375)), Q00987. Kind of experiment: co-IP; A375 lysate, untransfected or transfected with untagged MDM2; MDM2 (antibodies 2A10, 2A9, 4B2, 3G5, SMP14) or CK1α (antibody C-19) immunoprecipitated on Protein G Sepharose; Western blot. As to conditions: remark: other sources report otherwise. (In western blotting, separated proteins are transferred to a membrane and probed.)

Results are given in words; binding and its absence hold for the method and conditions named. Binding seen in cells or lysates may run through a third protein.

B1: CK1δ, endogenous in A375 cells, P48730 1-415 (protein)
chain: MELRVGNRYRLGRKIGSGSFGDIYLGTDIAAGEEVAIKLECVKTKHPQLHIESKIYKMMQGGVGIPTIRWCGAEGDYNVMVMELLGPSLEDLFNFCSRKFSLKTVLLLADQMISRIEYIHSKNFIHRDVKPDNFLMGLGKKGNLVYIIDFGLAKKYRDARTHQHIPYRENKNLTGTARYASINTHLGIEQSRRDDLESLGYVLMYFNLGSLPWQGLKAATKRQKYERISEKKMSTPIEVLCKGYPSEFATYLNFCRSLRFDDKPDYSYLRQLFRNLFHRQGFSYDYVFDWNMLKFGASRAADDAERERRDREERLRHSRNPATRGLPSTASGRLRGTQEVAPPTPLTPTSHTANTSPRPVSGMERERKVSMRLHRGAPVNISSSDLTGRQDTSRMSTSQIPGRVASSGLQSVVHR
Consider B1, for which the binding entry is on record as “no binding”.

B2: CK1ε, endogenous in A375 cells, P49674 1-416 (protein)
chain: MELRVGNKYRLGRKIGSGSFGDIYLGANIASGEEVAIKLECVKTKHPQLHIESKFYKMMQGGVGIPSIKWCGAEGDYNVMVMELLGPSLEDLFNFCSRKFSLKTVLLLADQMISRIEYIHSKNFIHRDVKPDNFLMGLGKKGNLVYIIDFGLAKKYRDARTHQHIPYRENKNLTGTARYASINTHLGIEQSRRDDLESLGYVLMYFNLGSLPWQGLKAATKRQKYERISEKKMSTPIEVLCKGYPSEFSTYLNFCRSLRFDDKPDYSYLRQLFRNLFHRQGFSYDYVFDWNMLKFGAARNPEDVDRERREHEREERMGQLRGSATRALPPGPPTGATANRLRSAAEPVASTPASRIQPAGNTSPRAISRVDRERKVSMRLHRGAPANVSSSDLTGRQEVSRIPASQTSVPFDHLGK
For B2, the binding result is “no binding”.

Values taken from paper PMC3423359.
